Patent US7208142B2, “Indanylidene compounds” (Symrise GmbH & Co. KG, priority 2000, dated 2007)
For at least one compound, name, drawing or mass did not settle the structure.

Assay: Photostability: irradiation in a Suntester, concentration decrease of the UV filters
Assay type: physicochemical

## CCCCC(CC)COC(=O)C=Cc1ccc(OC)cc1 (centres unmarked) [OMC, octyl methoxycinnamate]
Combination A1 + OMC, formulation Example 12, 72 J/cm^2
  concentration decrease of the UV filter following irradiation: 27%
Combination A1 + OMC, formulation Example 12, 144 J/cm^2
  concentration decrease of the UV filter following irradiation: 35%
Combination A2 + OMC, formulation Example 12, 72 J/cm^2
  concentration decrease of the UV filter following irradiation: 7%
Combination A2 + OMC, formulation Example 12, 144 J/cm^2
  concentration decrease of the UV filter following irradiation: 12%
Combination B1 + OMC, formulation Example 12, 72 J/cm^2
  concentration decrease of the UV filter following irradiation: 12%
Combination B1 + OMC, formulation Example 12, 144 J/cm^2
  concentration decrease of the UV filter following irradiation: 19%
Combination B2 + OMC, formulation Example 12, 72 J/cm^2
  concentration decrease of the UV filter following irradiation: 11%
Combination B2 + OMC, formulation Example 12, 144 J/cm^2
  concentration decrease of the UV filter following irradiation: 13%
Combination B3 + OMC + BMDM, formulation Example 4, 72 J/cm^2
  concentration decrease of the UV filter following irradiation: 17%
Combination B3 + OMC + BMDM, formulation Example 4, 144 J/cm^2
  concentration decrease of the UV filter following irradiation: 26%
Combination B3 + OMC, formulation Example 12, 72 J/cm^2
  concentration decrease of the UV filter following irradiation: 11%
Combination B3 + OMC, formulation Example 12, 144 J/cm^2
  concentration decrease of the UV filter following irradiation: 13%
Combination OMC + BMDM, comparison without A or B, 72 J/cm^2
  concentration decrease of the UV filter following irradiation: 48%
Combination OMC + BMDM, comparison without A or B, 144 J/cm^2
  concentration decrease of the UV filter following irradiation: 59%
